Results are given in words; binding and its absence hold for the method and conditions named. Binding calls can cover weak binding; strength is not graded here.
Molecular target: Mouse SA (mouse)
Experiment: Octet RED96 biolayer interferometry; antibody loaded on AHC biosensor, dipped into mouse serum albumin at 200 nM

- binding: binds
B1: AWT-P494 (humanized P367) anti-HSA antibody (VHH)
VHH: EVQLVESGGGLVQPGGSLRLSCAASGSTWSINTLAWYRQAPGKQRDLVARISSGGSTYYADSVKGRFTISRDNSKNTLYLQMNSLRAEDTAVYYCYAQSTWYPPSWGQGTLVTVSS

From US20210340272A1
